3 molecules from PMC4789793, “Noggin4 is a long-range inhibitor of Wnt8 signalling that regulates head development in Xenopus laevis” (Scientific Reports, 2016) can be followed below.

Results are given in words; binding and its absence hold for the method and conditions named. Binding can be weak; no strength is given. Sequences can lack the tags named with a protein. For some of these results: In cells and extracts the contact can be indirect.

Test [1] deals with T1, TagRFP-XWnt8 (Xenopus laevis) (UniProt P28026).
T1 sequence: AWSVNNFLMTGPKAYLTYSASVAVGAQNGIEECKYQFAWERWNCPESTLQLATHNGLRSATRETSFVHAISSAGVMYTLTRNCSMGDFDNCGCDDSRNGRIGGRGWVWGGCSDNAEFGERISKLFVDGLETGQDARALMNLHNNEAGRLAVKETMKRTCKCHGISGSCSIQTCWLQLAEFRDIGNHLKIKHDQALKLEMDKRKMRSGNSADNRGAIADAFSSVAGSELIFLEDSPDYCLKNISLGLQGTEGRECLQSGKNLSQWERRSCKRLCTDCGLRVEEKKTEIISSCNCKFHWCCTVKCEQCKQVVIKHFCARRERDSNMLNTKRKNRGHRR
The test can be described thus: transplantation assay (diffusion from ectodermal grafts, confocal microscopy); diffusion of EGFP-Noggin4 from a graft into the intercellular space of recipient ectoderm expressing TagRFP-Wnt8, compared with recipients expressing TagRFP-hep; one hour after wound healing.

The target in test [2] is Myc-Noggin4 (Xenopus laevis). The test can be described thus: co-IP; Myc-Noggin from conditioned medium of dissociated embryos bound on anti-MYC affinity gel and washed; concentrated conditioned medium with the Flag-tagged protein added, 4 °C overnight, CMFM + IP additives (0.1% NP40, glutathione); eluted with c-MYC peptide, Western blot; only the target purified. A general note: A western blot detects proteins with antibodies after separation by electrophoresis.

Test [3] deals with Myc-Noggin4 (Xenopus laevis). As to the kind of experiment: co-IP; crude extracts of mid-gastrula embryos injected at the 2-cell stage with Noggin4 and Wnt8 mRNA, alone or with increasing amounts of Frizzled8 mRNA.
Test [4] concerns the target Myc-Noggin2 (Xenopus laevis). The test can be described thus: co-IP; Myc-Noggin from conditioned medium of dissociated embryos bound on anti-MYC affinity gel and washed; concentrated conditioned medium with the Flag-tagged protein added, 4 °C overnight, CMFM + IP additives (0.1% NP40, glutathione); eluted with c-MYC peptide, Western blot; only the target purified.

With EGFP-Noggin4 (Xenopus laevis), the binding result in test [1] was “binds”.

B1: Flag-Wnt8 (ligand, UniProt P28026 23-358)
chain: AWSVNNFLMTGPKAYLTYSASVAVGAQNGIEECKYQFAWERWNCPESTLQLATHNGLRSATRETSFVHAISSAGVMYTLTRNCSMGDFDNCGCDDSRNGRIGGRGWVWGGCSDNAEFGERISKLFVDGLETGQDARALMNLHNNEAGRLAVKETMKRTCKCHGISGSCSIQTCWLQLAEFRDIGNHLKIKHDQALKLEMDKRKMRSGNSADNRGAIADAFSSVAGSELIFLEDSPDYCLKNISLGLQGTEGRECLQSGKNLSQWERRSCKRLCTDCGLRVEEKKTEIISSCNCKFHWCCTVKCEQCKQVVIKHFCARRERDSNMLNTKRKNRGHRR
For B1, the binding entry in test [2] and in test [3] was “binds” each time.

B2: Flag-BMP4 (ligand, UniProt P30885 288-401)
chain: SPKQQRPRKKNKHCRRHSLYVDFSDVGWNDWIVAPPGYQAFYCHGDCPFPLADHLNSTNHAIVQTLVNSVNSSIPKACCVPTELSAISMLYLDEYDKVVLKNYQEMVVEGCGCR
B2: the binding entry in test [4] is listed as “binds”.
